Test results as given in US11511054B2, “Use of antistatic materials in the airway for thermal aerosol condensation process” (Alexza Pharmaceuticals, Inc., priority 2015, dated 2022).

How the values were obtained:
[1] = Airway deposition and aerosol charges for Permastat, Permastat Plus and standard airway material (Example 38); details: 1 mg, 28.3 LPM; for Mean airway deposition: mean of 4 devices
[2] = Airway deposition and aerosol charges of normal, metallized and Permastat Plus airways (Example 40); type: physicochemical; details: 28.3 LPM
[3] = Permastat Plus airway, single devices, listed as AZ002

With `Cc1nnc2n1-c1ccc(Cl)cc1C(c1ccccc1)=NC2` [Alprazolam] the Mean airway deposition ([1]; Permastat Plus airway) was 0.07%, the Airway deposition [1, 3] was 0.04% and 0.03% and 0.00% and 0.20% and the Emitted dose [1, 3] was 96.7% and 95.9% and 96.3% and 96.1%. It also gave a Mean airway deposition ([1]; Permastat airway) of 0.12%, a Mean airway deposition ([1]; control (normal) airway) of 15.1% and an Airway dep ([2]; Metallized airway, no ESD gun) of 0%. The “Airway dep (second column)” value ([2]; Metallized airway, no ESD gun) was 0% and 0.001%, the “Ave Airway dep” value ([2]; Metallized airway, no ESD gun) was 0% and the “Airway dep (second column)” value ([2]; Normal airway, ESD gun 16 kV+) was 0.15% and 0.024%. The Emitted dose ([2]; Normal airway, ESD gun 16 kV+) was 0.815 mg and 0.943 mg and the HP dep ([2]; Normal airway, ESD gun 16 kV+) was 0.035 mg and 0.033 mg.

Values joined by “and” are separate entries in the source; they are usually repeats but may differ in a detail not shown here. Identical values can stand only once.
